In the experiment the target is T1, 1×Flag-ADAR1p110 (Adenosine Deaminase Acting on RNA 1 p110) (UniProt P55265).
T1 sequence: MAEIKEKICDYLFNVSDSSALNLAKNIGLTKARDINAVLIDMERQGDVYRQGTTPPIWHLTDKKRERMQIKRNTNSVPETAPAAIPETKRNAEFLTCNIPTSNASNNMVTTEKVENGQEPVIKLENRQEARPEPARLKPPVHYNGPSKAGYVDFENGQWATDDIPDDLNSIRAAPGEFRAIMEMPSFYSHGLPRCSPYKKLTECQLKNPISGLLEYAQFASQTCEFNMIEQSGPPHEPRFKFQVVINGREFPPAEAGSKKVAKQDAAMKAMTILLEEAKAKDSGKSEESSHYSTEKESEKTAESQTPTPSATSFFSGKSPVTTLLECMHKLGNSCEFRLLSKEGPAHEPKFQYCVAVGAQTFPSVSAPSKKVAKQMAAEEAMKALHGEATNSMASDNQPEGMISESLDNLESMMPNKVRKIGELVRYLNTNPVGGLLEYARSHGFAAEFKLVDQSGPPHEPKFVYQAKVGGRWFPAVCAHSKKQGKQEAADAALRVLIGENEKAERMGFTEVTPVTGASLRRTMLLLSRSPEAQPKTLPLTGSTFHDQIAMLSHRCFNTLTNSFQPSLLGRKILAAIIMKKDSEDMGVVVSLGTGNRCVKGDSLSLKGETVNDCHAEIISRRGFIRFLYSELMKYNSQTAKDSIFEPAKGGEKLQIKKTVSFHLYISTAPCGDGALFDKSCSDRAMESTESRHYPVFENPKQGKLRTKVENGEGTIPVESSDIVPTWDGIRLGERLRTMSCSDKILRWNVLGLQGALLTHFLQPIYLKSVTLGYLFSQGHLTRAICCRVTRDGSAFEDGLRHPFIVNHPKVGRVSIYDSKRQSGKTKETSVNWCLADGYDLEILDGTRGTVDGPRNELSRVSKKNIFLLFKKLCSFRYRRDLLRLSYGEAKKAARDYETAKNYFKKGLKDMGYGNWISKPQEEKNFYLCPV
Put plainly: affinity purification with mass spectrometry.

Amino acid sequences for entries named in this document (tags omitted).
UniProt Q9UQE7: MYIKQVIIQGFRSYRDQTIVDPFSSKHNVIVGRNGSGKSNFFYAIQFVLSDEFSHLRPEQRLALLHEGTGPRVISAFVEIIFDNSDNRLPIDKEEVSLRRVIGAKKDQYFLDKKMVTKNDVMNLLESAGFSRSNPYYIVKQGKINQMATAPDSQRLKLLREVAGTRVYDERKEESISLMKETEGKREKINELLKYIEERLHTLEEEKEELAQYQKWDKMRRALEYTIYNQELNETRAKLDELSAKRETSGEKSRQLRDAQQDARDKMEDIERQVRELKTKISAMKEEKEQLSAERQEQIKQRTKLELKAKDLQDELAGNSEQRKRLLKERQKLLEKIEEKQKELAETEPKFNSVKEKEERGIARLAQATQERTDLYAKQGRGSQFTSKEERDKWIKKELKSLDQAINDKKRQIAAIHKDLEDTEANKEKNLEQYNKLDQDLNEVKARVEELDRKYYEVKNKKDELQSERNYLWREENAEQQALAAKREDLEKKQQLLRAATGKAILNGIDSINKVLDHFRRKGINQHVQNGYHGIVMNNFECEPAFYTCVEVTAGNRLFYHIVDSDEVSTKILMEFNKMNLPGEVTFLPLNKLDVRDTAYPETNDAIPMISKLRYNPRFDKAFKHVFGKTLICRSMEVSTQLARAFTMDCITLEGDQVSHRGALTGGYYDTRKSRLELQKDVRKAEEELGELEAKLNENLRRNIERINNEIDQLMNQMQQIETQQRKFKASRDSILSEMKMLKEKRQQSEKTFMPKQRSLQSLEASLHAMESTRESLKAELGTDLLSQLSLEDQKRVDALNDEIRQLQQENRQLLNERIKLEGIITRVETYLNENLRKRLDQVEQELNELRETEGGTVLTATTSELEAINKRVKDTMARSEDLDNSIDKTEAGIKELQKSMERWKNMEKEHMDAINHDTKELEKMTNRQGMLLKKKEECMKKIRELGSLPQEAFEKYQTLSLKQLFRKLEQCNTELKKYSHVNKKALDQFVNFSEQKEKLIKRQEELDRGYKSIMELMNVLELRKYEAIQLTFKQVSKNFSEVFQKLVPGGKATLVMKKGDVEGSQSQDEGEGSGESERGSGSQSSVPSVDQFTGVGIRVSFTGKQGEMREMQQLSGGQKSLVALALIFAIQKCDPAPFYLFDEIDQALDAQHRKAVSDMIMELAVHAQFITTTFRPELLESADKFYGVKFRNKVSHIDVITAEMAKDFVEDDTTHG

No constants are given. Whether binding was seen depends on the method and setting. Binding seen in cells or lysates may run through a third protein. These calls come from enrichment with a bait or labelling near it, and not all partners need be listed. Sequences can lack the tags named with a protein.

In the case of “Structural Maintenance of Chromosome 3 (SMC3) (from UniProt Q9UQE7 1-1217)”, the binding result is recorded as “binds”.

(Values after article doi:10.1101/2025.05.28.656747.)
